Article PMC9275683
Results are given in words; binding and its absence hold for the method and conditions named. For some of these results: Binding seen in cells or lysates may run through a third protein. Some binding calls cover weakened binding; strength is not graded here. For some of these results: Where a sequence is shown, tags or fusion partners need not be part of it. Values belong to the binder of their own block, whether it stands above or below them.

Assays:
[1] = biological target: T1, BRAP-CTD (84–354 aa of human BRAP) fused with the GAL4 DNA binding domain and a c-Myc epitope tag (pGBKT7-BRAP-CTD) (human) (UniProt Q6UWU4); assay: two-hybrid; Matchmaker Gold yeast two-hybrid library screen: Y2HGold with bait pGBKT7-BRAP-CTD mated with Y187 with normalized universal human Mate & Plate Library; diploids grown on SD/–Leu/–Trp at 30°C for 3 d, replica-plated onto SD/–Ade/–His/–Leu/–Trp with X-α-Gal; blue colonies sequenced
T1 sequence: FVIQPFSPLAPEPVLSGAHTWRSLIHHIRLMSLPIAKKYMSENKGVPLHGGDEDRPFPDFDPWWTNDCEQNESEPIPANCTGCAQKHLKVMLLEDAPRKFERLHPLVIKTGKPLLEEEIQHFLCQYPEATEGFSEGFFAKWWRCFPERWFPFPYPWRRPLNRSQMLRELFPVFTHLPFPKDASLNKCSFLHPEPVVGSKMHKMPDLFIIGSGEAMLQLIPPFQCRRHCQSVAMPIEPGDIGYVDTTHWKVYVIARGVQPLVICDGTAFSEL

[2] = biological target: ATG5, endogenous in 16HBE14o- cells (human (endogenous in 16HBE14o-)) (UniProt Q9H1Y0); assay: co-IP; endogenous proteins in 16HBE14o- lysate (RIPA buffer); 1 μg of anti-ATG5 or anti-BRAP antibody and Protein A Dynabeads, 4°C overnight; washed with NP-40 buffer; immunoblot
[3] = biological target: GST-tagged recombinant ATG5 (pGEX4T1-ATG5) (UniProt Q9H1Y0); assay: pull-down; GST-tagged ATG5 from E. coli lysate bound to glutathione agarose resin and washed, then incubated with E. coli lysate containing MBP-tagged BRAP-CTD for 1 h at 4°C; washed in PBS; immunoblot with anti-BRAP; only the target purified

B1: ATG5 fragment 1–158 aa (library clone of the yeast two-hybrid screen) (domain or fragment, UniProt Q9H1Y0 1-158)
chain: MTDDKDVLRDVWFGRIPTCFTLYQDEITEREAEPYYLLLPRVSYLTLVTDKVKKHFQKVMRQEDISEIWFEYEGTPLKWHYPIGLLFDLLASSSALPWNITVHFKSFPEKDLLHCPSKDAIEAHFMSCMKEADALKHKSQVINEMQKKDHKQLWMGLQ
binding [1]: binds

B4: Bombesin receptor–activated protein (BRAP), endogenous in 16HBE14o- cells (protein, UniProt Q6UWU4-2 1-354)
chain: MDFILEDMDLAANEISIYDKLSETVDLVRQTGHQCGMSEKAIEKFIRQLLEKNEPQRPPPQYPLLIVVYKVLATLGLILLTAYFVIQPFSPLAPEPVLSGAHTWRSLIHHIRLMSLPIAKKYMSENKGVPLHGGDEDRPFPDFDPWWTNDCEQNESEPIPANCTGCAQKHLKVMLLEDAPRKFERLHPLVIKTGKPLLEEEIQHFLCQYPEATEGFSEGFFAKWWRCFPERWFPFPYPWRRPLNRSQMLRELFPVFTHLPFPKDASLNKCSFLHPEPVVGSKMHKMPDLFIIGSGEAMLQLIPPFQCRRHCQSVAMPIEPGDIGYVDTTHWKVYVIARGVQPLVICDGTAFSEL
binding [2]: binds

B5: MBP-tagged BRAP-CTD (pMAL-BRAP-CTD) (domain or fragment, UniProt Q6UWU4-2 84-354)
chain: T1 sequence
binding [3]: binds

B6: ATG5 fragment 1–142 aa (library clone of the yeast two-hybrid screen) (domain or fragment, UniProt Q9H1Y0 1-142)
chain: MTDDKDVLRDVWFGRIPTCFTLYQDEITEREAEPYYLLLPRVSYLTLVTDKVKKHFQKVMRQEDISEIWFEYEGTPLKWHYPIGLLFDLLASSSALPWNITVHFKSFPEKDLLHCPSKDAIEAHFMSCMKEADALKHKSQVI
binding [1]: binds

Further lines, results first:

binding [1]: binds
B2: ATG5 fragment 1–161 aa (library clone of the yeast two-hybrid screen) (domain or fragment, UniProt Q9H1Y0 1-161)
chain: MTDDKDVLRDVWFGRIPTCFTLYQDEITEREAEPYYLLLPRVSYLTLVTDKVKKHFQKVMRQEDISEIWFEYEGTPLKWHYPIGLLFDLLASSSALPWNITVHFKSFPEKDLLHCPSKDAIEAHFMSCMKEADALKHKSQVINEMQKKDHKQLWMGLQNDR

binding [1]: binds
B3: ATG5 fragment 1–165 aa (library clone of the yeast two-hybrid screen) (domain or fragment, UniProt Q9H1Y0 1-165)
chain: MTDDKDVLRDVWFGRIPTCFTLYQDEITEREAEPYYLLLPRVSYLTLVTDKVKKHFQKVMRQEDISEIWFEYEGTPLKWHYPIGLLFDLLASSSALPWNITVHFKSFPEKDLLHCPSKDAIEAHFMSCMKEADALKHKSQVINEMQKKDHKQLWMGLQNDRFDQF

binding [1]: binds
B7: ATG5 fragment 1–167 aa (library clone of the yeast two-hybrid screen) (domain or fragment, UniProt Q9H1Y0 1-167)
chain: MTDDKDVLRDVWFGRIPTCFTLYQDEITEREAEPYYLLLPRVSYLTLVTDKVKKHFQKVMRQEDISEIWFEYEGTPLKWHYPIGLLFDLLASSSALPWNITVHFKSFPEKDLLHCPSKDAIEAHFMSCMKEADALKHKSQVINEMQKKDHKQLWMGLQNDRFDQFWA
